The values below come from patent US20040076995A1, “Nurr1 transcription factor 1-box mutants having monomeric transcriptional activation activity” (priority 2001, published 2004).

Construct, isoform or probe ends are uncertain for at least one entry. No signal at the amounts used counts as a negative.

Data set [1] relates to Nurr1 GKL(557-559)AAA + RXR Nurr1 G557A,K558A,L559A. In words: EMSA. To be noted: no heterodimer on DNA; monomeric binding retained; protein translated in vitro; label: 32P (Klenow fill-in).
For data set [2], the system named is Nurr1 KLL(554-556)AAA + RXR Nurr1 K554A,L555A,L556A. Nature of the data set: EMSA. To be noted: no heterodimer on DNA; monomeric binding retained; protein translated in vitro; label: 32P (Klenow fill-in). In general terms: A gel shift assay detects complexes by their altered migration in electrophoresis.

In the case of “AGCTTAAGGGGTTCACCGAAAGTTCACTCGCAT (double strand) [betaRE probe (hRARbeta2 promoter RARE)]”, the binding result in data set [1] and in data set [2] was “no binding” in each case.
